Out of some 320,000 compounds screened, about 22,000 (6.9%) were called active. This list was built around the results that the source calls inconclusive (neither active nor inactive); the mix of calls is not that of the screen. Calls follow the shape of the dose curve; as a rule, active = well fitted inhibition curve with a large enough effect; inconclusive = small, poorly fitted or top-dose-only effect, or another doubt; inactive = no such curve, though single readings can be large or run the other way. Potencies of inconclusive entries are doubtful fits and often do not repeat.
Test: Primary qHTS for delayed death inhibitors of the malarial parasite plastid, 96 hour incubation
Conditions: P. falciparum luciferase reporter growth; series mostly up to 28.7 µM; activity change, negative = inhibition: at the top concentration
Summary of the method: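 Delayed-death screen, second-generation endpoint: infected erythrocytes, 2% hematocrit, 0.05% parasitemia final; 96 hours at 37 C, 5% CO2; luciferase detection reagent; luminescence decrease equals reduced growth.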
% is scaled to controls: 0 for no effect and ±100 for the full control effect; potency is read from the fitted curve at half-maximal effect.

| SMILES | Potency | activity change, negative = inhibition |
| --- | --- | --- |
| Cc1n[nH]c(=S)n(/N=C/c2cccs2)c1=O | inconclusive: 0.117 µM [inhibitor, full curve, poor fit] |  |
| COc1cccc(CCc2nnc(CCC(=O)NC(C)c3c(C)nn(C)c3C)o2)c1 (configuration not stated) |  | inactive: 48.6% |
| Cc1ccsc1/C=C1/C(=O)NN(c2ccccc2)C1=O |  | inactive: -13.3% |
| CCOC(=O)N1CCN(S(=O)(=O)c2ccc(OC)c(Br)c2)CC1 | inconclusive: 18.5 µM [inhibitor, single point] |  |
| Cc1ccc(NC2CCCN(C(=O)c3ccoc3C)C2)cc1C (configuration not stated) | inconclusive: 18.5 µM [inhibitor, single point] |  |
| CN(C)c1ccc(S(=O)(=O)NCC(=O)OCC(=O)Nc2cc(Cl)cc(Cl)c2)cc1[N+](=O)[O-] |  | inactive: -8.74% |
| Cc1cc(C)n2c(SCC(=O)NC3CCCCC3)nnc2n1 |  | inactive: 37.5% |
| CC1=Nc2cc(C(=O)NCc3ccco3)ccc2Sc2ccc(C)cc21 | active: 1.85 µM |  |
| O=C(C[N+]12CCC(CC1)C(CO)C2)c1ccc([N+](=O)[O-])cc1 (configuration not stated) | inconclusive: 10.4 µM [inhibitor, single point] |  |
| CC(C)C[C@H](NC(=O)c1nc[nH]c1C(=O)NCC(=O)OC(C)(C)C)C(=O)OCc1ccccc1 |  | inactive: -98.3% |
| CCN(Cc1ccccc1)C(=O)Cn1c(=O)n(CCC(=O)N2CCCCC2)c(=O)c2sccc21 | inconclusive: 11.7 µM [inhibitor, partial curve, poor fit] |  |
| Cc1c(OCC(=O)NC2CC(C)(C)NC(C)(C)C2)ccc2c3c(c(=O)oc12)CCC3 | inconclusive: 18.5 µM [inhibitor, single point] |  |
| CN(C)c1ccc(S(=O)(=O)N2CCCCC2)cc1NC(=O)CCNC(=O)c1ccc(Cl)cc1 | inconclusive: 9.28 µM [inhibitor, partial curve] |  |
| O=C(NCCOc1ccc(Cl)cc1)c1cccc(S(=O)(=O)N2CCCC2)c1 | inconclusive: 18.5 µM [inhibitor, single point] |  |
| CCS(=O)(=O)N1Cc2ccccc2CC1C(=O)N(C)CC(=O)Nc1cccc(F)c1 (configuration not stated) |  | inactive: 22% |
| O=C(NCC(c1cccs1)N1CCOCC1)c1ccc(Cl)s1 (configuration not stated) | inconclusive: 11.7 µM [inhibitor, partial curve, poor fit] |  |
| O=C(NCc1ccccc1)c1ccc(Br)cc1Br |  | inactive: 45.2% |
| COc1ccc(OCc2cc(C(=O)N3CCN(CC4CC4)CC3)no2)c(Cl)c1 | inconclusive: 14.7 µM [inhibitor, single point] |  |
| COc1ccc(/C=N/NS(=O)(=O)c2ccccc2)cc1OC | inconclusive: 18.5 µM [inhibitor, single point] |  |
| CCCCCOc1ccc(NC(=O)CSc2cccc3cccnc23)cc1 | active: 5.22 µM |  |
| CC(C)c1nc(CNC(=O)CC2C(=O)NCCN2Cc2ccoc2)cs1 (configuration not stated) | inconclusive: 11.7 µM [inhibitor, single point] |  |
| COCCNC(=O)c1cccc(S(=O)(=O)N2CC3(C)CC2CC(C)(C)C3)c1 (configuration not stated) | inconclusive: 11.7 µM [inhibitor, partial curve, poor fit] |  |
| CC(C)(C)c1cc(NCCCn2ccnc2)n2ncc(-c3ccc(Cl)cc3)c2n1 | inconclusive: 0.465 µM [inhibitor, full curve, poor fit] |  |

Look-ups from the entries so far.
activity change, negative = inhibition, `Cc1cc(C)n2c(SCC(=O)NC3CCCCC3)nnc2n1` is entered as inactive: 37.5%
Potency, `CCCCCOc1ccc(NC(=O)CSc2cccc3cccnc23)cc1` is entered as active: 5.22 µM
Potency, `CCOC(=O)N1CCN(S(=O)(=O)c2ccc(OC)c(Br)c2)CC1` is entered as inconclusive: 18.5 µM [inhibitor, single point]
Potency, `COc1ccc(/C=N/NS(=O)(=O)c2ccccc2)cc1OC` is entered as inconclusive: 18.5 µM [inhibitor, single point]

(further entries)

| SMILES | Potency | activity change, negative = inhibition |
| --- | --- | --- |
| CSc1nc(=S)n(-c2ccc([N+](=O)[O-])cc2)c(C)c1C(C)=O | inconclusive: 10.4 µM [inhibitor, single point] |  |
| COc1ccc(-n2c(=O)c3c4c(sc3n(CC(=O)NCC3CCCO3)c2=O)CCCC4)c(OC)c1 (configuration not stated) | inconclusive: 18.5 µM [inhibitor, single point] |  |
| COC(=O)c1c(-c2ccc(C)cc2)csc1NC(=S)NC(=O)c1cc(OC)cc(OC)c1 | active: 8.28 µM |  |
| Nc1nc(SCC(=O)NCC2CCCO2)[nH]c(=O)c1NC(=O)c1ccc(F)c(F)c1 (configuration not stated) | active: 16.5 µM |  |
| COc1ccc(C(=O)N=C2CCC(C#N)=C3c4cc(OC)c(OC)cc4CCN23)cc1 | inconclusive: 0.37 µM [inhibitor, partial curve, poor fit] |  |
| COc1ccc(CNC(=O)CCCn2nc(C)c([N+](=O)[O-])c2C)cc1 |  | inactive: 35.9% |
| Cn1c(=O)cc(SCC(=O)N2CCN(C(=O)c3ccco3)CC2)c2ccccc21 |  | inactive: -22% |
| CCOc1ccc(NC(=S)N2CCCC2)cc1 | inconclusive: 18.5 µM [inhibitor, single point] |  |
| CCN(CC)CCNC(=O)c1ccc(Cl)c(S(=O)(=O)Nc2ccc(Cl)cc2)c1 | inconclusive: 10.4 µM [inhibitor, partial curve, poor fit] |  |
| O=C(Nc1nc2ccccc2n1Cc1ccccc1)c1ccc(COc2ccccc2[N+](=O)[O-])o1 | inconclusive: 4.65 µM [inhibitor, partial curve, poor fit] |  |
| O=C(CCCc1nc(-c2ccccc2)no1)N1CCOCC1 |  | inactive: 29% [at 5.75 µM] |
| CCC(=O)n1nc(-c2ccc(Cl)cc2)nc1N | inconclusive: 5.86 µM [inhibitor, partial curve, poor fit] |  |
| Cc1c(C)c(C)c(C(=O)CCc2cccc(NC(=O)CCC(=O)O)c2)c(C)c1C |  | inactive: 5.85% |
| CCCc1nc(SCC(=O)N2CCCc3ccccc32)c2c(=O)n(C)c(=O)n(C)c2n1 | inconclusive: 18.5 µM [inhibitor, single point] |  |
| COc1cc2c(cc1OC)CN(Cc1ccc(C)s1)CC2 |  | inactive: 4.18% |
| O=C(CN1CCN(S(=O)(=O)c2ccccc2)CC1)Nc1ccc(Cl)c(Cl)c1 | inconclusive: 8.28 µM [inhibitor, single point] |  |
| CCn1cc([N+](=O)[O-])c(=O)c2cc(F)c(N3CCOCC3)cc21 | inconclusive: 18.5 µM [inhibitor, single point] |  |
| CC(=O)N1c2ccc(S(=O)(=O)N3CCCCC3)cc2CC1C(=O)Nc1ccc(C)cc1 (configuration not stated) | inconclusive: 10.4 µM [inhibitor, partial curve] |  |
| COc1ccc(N(C)C(=O)c2cc3c(s2)-c2ccc(Cl)cc2S(=O)(=O)C3)c(OC)c1 | active: 13.1 µM |  |
| COc1ccccc1NC(=O)C(NC(=O)c1ccc(C)cc1)c1ccccc1 (configuration not stated) |  | inactive: 1.8% |
| COc1ccc(CNC(=O)CN2CCN(S(=O)(=O)c3cccs3)CC2)cc1OC |  | inactive: 9.27% |
| COc1ccccc1C1C(C(C)=O)=C(C)N=c2s/c(=C\c3cc(OC)c(OC)c(OC)c3)c(=O)n21 (configuration not stated) | inconclusive: 13.1 µM [inhibitor, partial curve, poor fit] |  |
| O=C(c1cccc(S(=O)(=O)N2CCCC2)c1)N1CCCc2ccccc21 | inconclusive: 1.85 µM [inhibitor, single point] |  |

| SMILES | Potency | activity change, negative = inhibition |
| --- | --- | --- |
| CCN(Cc1ccccc1)S(=O)(=O)c1ccc(OC)cc1 | inconclusive: 2.94 µM [inhibitor, single point] |  |
| C[C@@]12CC[C@H]3OC(=O)C=C3C1CC[C@@]13CC(CCC12)[C@](CO)(O[C@H]1O[C@H](CO)[C@@H](O)[C@H](O)[C@H]1O)C3 (some centres not stated) |  | inactive: 20% |
| O=C(Nc1ccc(F)c(F)c1)c1ccc(F)c(S(=O)(=O)N2CCC3(CC2)OCCO3)c1 | active: 10.4 µM |  |
| C/C(=N\Nc1ccc(Cl)cc1)c1ccncc1 | inconclusive: 10.4 µM [inhibitor, single point] |  |
| CC(=O)NC(CC(=O)Oc1ccc(C)cc1Br)c1ccccc1 (configuration not stated) | inconclusive: 1.04 µM [inhibitor, partial curve, poor fit] |  |
| CC(C)(C)CC(=O)Nc1nnc(SCC(=O)NC2CCCCC2)s1 |  | inactive: 3.66% |
| O=c1c2ccccc2nc(-c2ccc(-c3ccccc3)cc2)n1-c1ccncc1 | inconclusive: 4.15 µM [inhibitor, partial curve, poor fit] |  |
| COC(=O)CN1C(c2ccc(Cl)cc2)=Nc2ccc(Cl)cc2C1c1ccccc1 (configuration not stated) | active: 3.29 µM |  |
| O=C(Nc1cccc(NC(=O)c2ccc(Br)o2)n1)c1ccc(Br)o1 |  | inactive: 53.5% |
| Cc1ccc(S(=O)(=O)Nc2ccccc2-c2ccccc2)cc1 | active: 11.7 µM |  |
| CC(NC(=O)C(C(=O)c1cccc([N+](=O)[O-])c1)n1cc(Cl)ccc1=O)c1ccccc1 (configuration not stated) | inconclusive: 4.65 µM [inhibitor, partial curve, poor fit] |  |
| CCc1nc2ccccc2c(C(=O)OCc2nnc(-c3ccccc3)o2)c1C | inconclusive: 18.5 µM [inhibitor, single point] |  |
| Cn1nc(C(F)(F)F)c(CNC(=O)C(C)(C)CCl)c1N1CCOCC1 | inconclusive: 11.7 µM [inhibitor, single point] |  |
| O=C1Nc2ccccc2C12OC1CCCCC1O2 (configuration not stated) | active: 3.7 µM |  |
| COc1ccc(NS(=O)(=O)c2cccc(C(=O)N(C)Cc3cccs3)c2)cc1 | inconclusive: 2.33 µM [inhibitor, full curve, poor fit] |  |
| Cc1csc(NC(=O)C2CCC(C)(C(=O)O)C2(C)C)n1 (configuration not stated) | inconclusive: 11.7 µM [inhibitor, single point] |  |
| Cc1nc(NC(=O)c2ccco2)sc1-c1csc(Nc2ccc(Cl)cc2)n1 | active: 9.28 µM |  |
| CCN(CC)CCCN1C(=O)C(=O)/C(=C(/O)c2ccc3c(c2)CC(C)O3)C1c1ccncc1 (configuration not stated) | inconclusive: 1.85 µM [inhibitor, full curve] |  |
| Cc1ccc(C)c(S(=O)(=O)N2CCN(CC(=O)NC(C)c3ccccc3)CC2)c1 (configuration not stated) |  | inactive: -24.7% |
| C=CCN1C(=O)C2(C(C(=O)OCC)=C(N)Oc3c2c(=O)oc2ccccc32)c2ccccc21 (configuration not stated) | inconclusive: 18.5 µM [inhibitor, single point] |  |
| CCc1nn2c(=O)cc(COc3ccc(/C=C4\C(=N)N5N=C(C)SC5=NC4=O)cc3)nc2s1 | inconclusive: 14.7 µM [inhibitor, single point] |  |

From PubChem BioAssay AID504834 (National Center for Advancing Translational Sciences (NCATS), 2011)
